Drawing on the supplement of paper PMC8007513, this text covers growth for 39 molecules.

Each structure is given as a SMILES string. The list shows a part of the results. Repeats are few or missing, and single values can be far off.

In the assay the test system is Saccharomyces cerevisiae BY4743. The experiment in a line: growth (OD600) relative to untreated control; higher = less growth inhibition. The following applies: compound concentration: 133 uM; 20 h. The protocol:
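NMCCC compounds (133 uM, no IPBC) tested alone against Saccharomyces cerevisiae BY4743 in YPD, 96-well plates, starting OD600 ~0.1. Growth was read as OD600 at 20 h and expressed as % of the untreated control. Single pass.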
In turn, `CCC(C)NC(=O)CCc1c(C)nc2nc(-c3cc(OC)cc(OC)c3)nn2c1C` (centres undefined) had a growth of 112%.

Regarding `CC(C)C1=CC=CC(=C1NC(=O)CN(C)\C2=N\[S](=O)(=O)C3=CC=CC=C23)C(C)C`, the growth is 98.4%.

`COc1cc(Br)c(CCNC(=O)c2nnc(O)c3ccccc23)cc1OC` returned a growth of 109%.

Consider `Cc1ccccc1S(=O)(=O)Nc1ncc(C(F)(F)F)cc1Cl`, for which the growth was 109%.

In the case of `COc1cc(OC)cc(-c2nnc(SCC(=O)N3CCOCC3)o2)c1`, the growth came out at 97.1%.

For the molecule `CNS(=O)(=O)Cc1ccc(CNC(=O)Nc2ccccc2F)cc1`, the growth stood at 90.1%.

In turn, `CC(Sc1nnc(NC2CC2)s1)C(=O)N(C)C1(C#N)CCCCC1` (centres undefined) gave a growth of 89%.

As to `CCOc1ccc(C(=O)NC(c2ccc(C)cc2)c2cccnc2)cc1` (centres undefined), the growth worked out at 108%.

In turn, `O=c1ccc(-c2ccccc2F)nn1C/C=C/c1ccccc1` came in with a growth of 108%.

Take `CN(C)CCCN(C(=O)c1ccc(Br)s1)c1nc2ccc(F)cc2s1`: the growth was found to be 4.1%.

Consider `CC(C)CCNc1c2c(nc3nncn13)CCC2`, for which the growth amounted to 111%.

On to `CCOC(=O)c1c(NC(=O)c2ccccc2)sc(C(C)=O)c1-c1ccccc1`, for which the growth amounted to 78.8%.

For `CCn1c(SCc2cc(C)on2)nnc1C1CC1`, the growth came to 102%.

Molecule `COC(=O)CCN1C(=O)\C=C(\C)C2=C[N](C)N=C12` showed a growth of 101%.

Molecule `Cc1ccc(/C=C/c2nnc(-c3cccs3)o2)cc1` returned a growth of 75.6%.

Take `CCN(CC)CCNc1nc2c(c(=O)[nH]c(=O)n2C)n1CC(C)C`: the growth was determined as 95.8%.

With `CCCn1c(SCC(=O)Nc2ccc(CC#N)cc2)nnc1-c1ccncc1`, the growth stood at 104%.

Molecule `CCCC(=O)Nc1ccc(C(=O)CSc2nnc(-c3cccnc3)n2C)cc1` gave a growth of 105%.

In turn, `CCOC(=O)c1ccc(N2CCN(C(=O)COc3ccccc3)CC2)nc1` returned a growth of 105%.

Consider `Cc1ccc(NC(=O)CN(C)C(C)c2ccc(-n3cncn3)cc2)cc1C` (centres undefined), for which the growth was determined as 107%.

As to `Clc1snnc1CSc1nccn1-c1ccccc1`, the growth was 104%.

`CN1C(=O)N(C)\C(=C(C#N)/C1=O)OC2=CC=CC3=C2OC(C)(C)C3`: the growth is 117%.

Regarding `Cc1ccc(CNS(=O)(=O)c2ccc3c(c2)C(C)(C)C(=O)N3)cc1`, the growth was 112%.

With `CCC(=O)Nc1nc2ccc(CC(=O)NCCN(C)C3CCCCC3)cc2s1`, the growth was 116%.

`CC(C)CN1\C(=N/[S](=O)(=O)C2=CC(=CC=C12)C(=O)N(C)CC3=CC=CC=C3)C`: the growth turned out to be 103%.

In turn, `CCOC(=O)c1[nH]c(C)c(C(=O)N2CCC(CC(=O)NC(C)CC)CC2)c1C` (centres undefined) returned a growth of 91.3%.

As for `CSCCC(NC(=O)c1ccc(C(C)(C)C)cc1)C(=O)Nc1ccc(N2CCOCC2)cc1` (centres undefined), the growth came to 103%.

For the molecule `Cc1ccc2c(c1)N(C(=O)Nc1ccc(Br)cc1)CCO2`, the growth is 90.4%.

`COc1cccc(C2/C(=C(\O)OC(C)(C)C)C(C)=Nc3nnnn32)c1` (centres undefined) registered a growth of 107%.

As for `Cc1nc2ccccc2nc1NCc1ccnc(OCC(F)(F)F)c1`, the growth is 105%.

The molecule `CCOC(=O)c1[nH]c(C)c(C(=O)Nc2cccc(Cl)c2C)c1C` returned a growth of 96.7%.

`COC(=O)CCCC(=O)NC(c1ccc(Cl)cc1)c1nnc(-c2ccccc2)o1` (centres undefined) displayed a growth of 106%.

Take `CC(C(=O)NC(=O)NC(C)(C)C)N1CCC(c2nc3ccccc3s2)CC1` (centres undefined): the growth was 110%.

Turning to `CCCCS(=O)(=O)Nc1cnn(Cc2ccc(F)cc2)c1`, the growth is 105%.

For the molecule `Cc1cc(COC(=O)c2ccccc2NC(=O)c2ccsc2)no1`, the growth came to 80%.

The molecule `Cc1nc(COC(=O)C(C)Oc2ccc(C#N)cc2)nc2ccccc12` (centres undefined) gave a growth of 101%.

Molecule `CCC(=O)N1CCc2cc(CNS(=O)(=O)N(C)C)ccc21` came in with a growth of 87.3%.

Molecule `NC(=O)c1cc(Cl)ccc1OCC(=O)Nc1ccc(N2CCCCC2)cc1` yielded a growth of 91.7%.

Regarding `CCC1=CC=C(C=C1)C(CN[S](=O)(=O)\C2=C\C3=CC=CC=C3CC2)N(C)C` (centres undefined), the growth is 108%.
